Laboratory results from patent publication US7786259 (dated 2010).

Key:
[1] = general procedure: peptide synthesis; MBHA-Z-Glu-OtBu resin (4-methyl-benzhydryl amine polystyrene); Pam resin; hydroxymethyl polystyrene; HATU/TMP; conditions: whole synthesis; for crude HPLC purity: 260 nm
[2] = general procedure: peptide synthesis; Dde resin; HATU/TMP; conditions: whole synthesis, HPLC of the crude product at 260 nm, C18 column

Substance | crude HPLC purity [1] [%] | crude HPLC purity [2] [%] | crude yield ([1]; amount of peptide obtained after cleavage) [%]
Tyr-Ala-Phe-NHCH(CH3)COCF3•H2O | 74 | – | –
Tyr-Ala-Orn-NHCH(CH3)COCF3•H2O | 74 | – | –
Tyr-Ala-Val-NHCH(CH3)COCF3•H2O | – | 85 | >80
